# Measurements as given in patent US20080009479A1, “Tetrahydrobenzazepines as Histamine H3 Receptor Ligands” (GLAXO GROUP LIMITED, priority 2004, published 2008).
# Chains of the proteins cited; added tags and fusions are not shown. Lines headed by an entry give the natural chain unless they say otherwise; changes in a name come on top.
# UniProt P35367, whole entry: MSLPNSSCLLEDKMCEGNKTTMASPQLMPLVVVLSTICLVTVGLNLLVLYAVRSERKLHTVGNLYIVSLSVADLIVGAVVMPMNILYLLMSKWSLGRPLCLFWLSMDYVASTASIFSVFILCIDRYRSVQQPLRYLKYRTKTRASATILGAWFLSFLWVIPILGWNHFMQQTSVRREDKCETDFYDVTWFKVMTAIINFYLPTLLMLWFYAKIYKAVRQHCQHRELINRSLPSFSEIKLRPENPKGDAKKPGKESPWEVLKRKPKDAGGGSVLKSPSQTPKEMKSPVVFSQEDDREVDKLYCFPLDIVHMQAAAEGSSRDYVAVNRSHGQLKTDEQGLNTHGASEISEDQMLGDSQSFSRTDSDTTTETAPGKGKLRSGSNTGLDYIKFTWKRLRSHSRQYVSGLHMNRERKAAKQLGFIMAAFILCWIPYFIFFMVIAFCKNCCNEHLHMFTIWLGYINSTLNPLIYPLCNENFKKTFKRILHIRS
# UniProt Q9Y5N1: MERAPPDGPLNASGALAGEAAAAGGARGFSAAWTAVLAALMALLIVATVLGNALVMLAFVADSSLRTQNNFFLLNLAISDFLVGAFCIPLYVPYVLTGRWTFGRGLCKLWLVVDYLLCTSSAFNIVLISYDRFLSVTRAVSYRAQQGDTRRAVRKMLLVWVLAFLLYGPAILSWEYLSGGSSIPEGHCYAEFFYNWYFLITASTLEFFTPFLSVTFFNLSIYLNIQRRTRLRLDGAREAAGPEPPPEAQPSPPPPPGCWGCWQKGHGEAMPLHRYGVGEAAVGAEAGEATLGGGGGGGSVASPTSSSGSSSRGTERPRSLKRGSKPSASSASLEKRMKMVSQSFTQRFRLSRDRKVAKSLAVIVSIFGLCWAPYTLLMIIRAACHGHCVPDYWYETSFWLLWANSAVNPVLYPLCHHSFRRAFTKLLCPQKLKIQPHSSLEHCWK
# Some results were stated once for a whole list of compounds, not compound by compound.
# What was measured:
# human H1 receptor = molecular target: T1, human H1 receptor (Homo sapiens, UniProt P35367); assay: Histamine H1 functional antagonist assay (method B); format: cell-based; conditions: FLIPR, Fluo-4, CHO cells expressing human H1, histamine at EC80
# T1 construct: expressed in transfected cells; host or cells: Chinese hamster ovary cells stably expressing the human H1 receptor
# [1] = molecular target: T2, human histamine H3 receptor (Homo sapiens, UniProt Q9Y5N1); assay: Histamine H3 functional antagonist assay (method C); format: biochemical; conditions: [35S]GTPγS LeadSeeker SPA, CHO membranes, histamine at EC80, 384 well, compound in DMSO
# T2 construct: expressed in transfected cells; host or cells: CHO K1 cells carrying the pSwitch regulatory plasmid, transfected with pGeneH3 and induced with mifepristone; clone 3H3; membranes prepared from these cells
# From the text: A membrane preparation containing histamine H3 receptors may be prepared in accordance with the following procedures:
# DNA encoding the human histamine H3 gene (Huvar, A. et al. (1999) Mol. Pharmacol. 55(6), 1101-1107) was cloned into a holding vector, pCDNA3.1 TOPO (InVitrogen) and its cDNA was isolated from this vector by restriction digestion of plasmid DNA with the enzymes BamH1 and Not-1 and ligated into the inducible expression vector pGene (InVitrogen) digested with the same enzymes. The GeneSwitch™ system (a system where in transgene expression is switched off in the absence of an inducer and switched on in the presence of an inducer) was performed as described in U.S. Pat. Nos. 5,364,791; 5,874,534; and 5,935,934. Ligated DNA was transformed into competent DH5α E. coli host bacterial cells and plated onto Luria Broth (LB) agar containing Zeocin™ (an antibiotic which allows the selection of cells expressing the sh ble gene which is present on pGene and pSwitch) at 50 μg ml^−1. Colonies containing the re-ligated plasmid were identified by restriction analysis. DNA for transfection into mammalian cells was prepared from 250 ml cultures of the host bacterium containing the pGeneH3 plasmid and isolated using a DNA preparation kit (Qiagen Midi-Prep) as per manufacturers guidelines (Qiagen).
# CHO K1 cells previously transfected with the pSwitch regulatory plasmid (InVitrogen) were seeded at 2×10e6 cells per T75 flask in Complete Medium, containing Hams F12 (GIBCOBRL, Life Technologies) medium supplemented with 10% v/v dialysed foetal bovine serum, L-glutamine, and hygromycin (100 μg ml^31 1), 24 hours prior to use. Plasmid DNA was transfected into the cells using Lipofectamine plus according to the manufacturers guidelines (InVitrogen). 48 hours post transfection cells were placed into complete medium supplemented with 500 μg ml^−1 Zeocin™.
# 10-14 days post selection 10 nM Mifepristone (InVitrogen), was added to the culture medium to induce the expression of the receptor. 18 hours post induction cells were detached from the flask using ethylenediamine tetra-acetic acid (EDTA; 1:5000; InVitrogen), following several washes with phosphate buffered saline pH 7.4 and resuspended in Sorting Medium containing Minimum Essential Medium (MEM), without phenol red, and supplemented with Earles salts and 3% Foetal Clone II (Hyclone). Approximately 1×10e7 cells were examined for receptor expression by staining with a rabbit polyclonal antibody, 4a, raised against the N-terminal domain of the histamine H3 receptor, incubated on ice for 60 minutes, followed by two washes in sorting medium. Receptor bound antibody was detected by incubation of the cells for 60 minutes on ice with a goat anti rabbit antibody, conjugated with Alexa 488 fluorescence marker (Molecular Probes). Following two further washes with Sorting Medium, cells were filtered through a 50 μm Filcon™ (BD Biosciences) and then analysed on a FACS Vantage SE Flow Cytometer fitted with an Automatic Cell Deposition Unit. Control cells were non-induced cells treated in a similar manner. Positively stained cells were sorted as single cells into 96-well plates, containing Complete Medium containing 500 μg ml^−1 Zeocin™ and allowed to expand before reanalysis for receptor expression via antibody and ligand binding studies. One clone, 3H3, was selected for membrane preparation.
# All steps of the protocol are carried out at 4° C. and with pre-cooled reagents. The cell pellet is resuspended in 10 volumes of homogenisation buffer (50 mM N-2-hydroxyethylpiperazine-N′-2-ethanesulfonic acid (HEPES), 1 mM ethylenediamine tetra-acetic acid (EDTA), pH 7.4 with KOH, supplemented with 10e-6M leupeptin (acetyl-leucyl-leucyl-arginal; Sigma L2884), 25 μg/ml bacitracin (Sigma B0125), 1 mM phenylmethylsulfonyl fluoride (PMSF) and 2×10e-6M pepstain A (Sigma)). The cells are then homogenised by 2×15 second bursts in a 1 litre glass Waring blender, followed by centrifugation at 500 g for 20 minutes. […]
Structure (SMILES),"antagonism pKb, histamine H1 functional antagonist assay (method B) (human H1 receptor)","antagonism pKb, histamine H3 functional antagonist assay (method C) [1]"
"CC(C)CN1CCc2ccc(OCc3ccccc3)cc2CC1 [Example E3, 3-(2-Methylpropyl)-7-[(phenylmethyl)oxy]-2,3,4,5-tetrahydro-1H-3-benzazepine]",< 6.5 pKb,–
"N#Cc1ccc(C(=O)N2CCC(COc3ccc4c(c3)CCN(CC3CC3)CC4)CC2)cc1 [Example E6, 4-{[4-({[3-(Cyclopropylmethyl)-2,3,4,5-tetrahydro-1H-3-benzazepin-7-yl]oxy}methyl)-1-piperidinyl]carbonyl}benzonitrile]",< 6.5 pKb,> 7 pKb
"CC(C)N1CCc2ccc(Oc3ccc(N4CCCC4=O)nc3)cc2CC1 [Example E30, 1-(5-{[3-(1-Methylethyl)-2,3,4,5-tetrahydro-1H-3-benzazepin-7-yl]oxy}-2-pyridinyl)-2-pyrrolidinone]",< 6.5 pKb,–
"CCN1CCc2ccc(Oc3ccc(N4CCCC4=O)cn3)cc2CC1 [Example E14, 1-{6-[(3-Ethyl-2,3,4,5-tetrahydro-1H-3-benzazepin-7-yl)oxy]-3-pyridinyl}-2-pyrrolidinone]",< 6.5 pKb,> 7 pKb
"CC(C)CN1CCc2ccc(Oc3ccc(N4CCCC4=O)nc3)cc2CC1 [Example E29, 1-(5-{[3-(2-Methylpropyl)-2,3,4,5-tetrahydro-1H-3-benzazepin-7-yl]oxy}-2-pyridinyl)-2-pyrrolidinone]",< 6.5 pKb,> 7 pKb
"CC(C)(C)CN1CCc2ccc(Oc3ccc(N4CCCC4=O)cn3)cc2CC1 [Example E12, 1-(6-{[3-(2,2-Dimethylpropyl)-2,3,4,5-tetrahydro-1H-3-benzazepin-7-yl]oxy}-3-pyridinyl)-2-pyrrolidinone]",< 6.5 pKb,> 7 pKb
"CNC(=O)c1ccc(Oc2ccc3c(c2)CCN(CC2CC2)CC3)nc1 [Example E23, 6-{[3-(Cyclopropylmethyl)-2,3,4,5-tetrahydro-1H-3-benzazepin-7-yl]oxy}-N-methyl-3-pyridinecarboxamide]",< 6.5 pKb,> 7 pKb
"CC(C)CN1CCc2ccc(Oc3ccc(N4CCCC4=O)cn3)cc2CC1 [Example E11, 1-(6-{[3-(2-Methylpropyl)-2,3,4,5-tetrahydro-1H-3-benzazepin-7-yl]oxy}-3-pyridinyl)-2-pyrrolidinone]",< 6.5 pKb,> 7 pKb
"O=C(C1CC1)N1CCC(COc2ccc3c(c2)CCN(CC2CC2)CC3)CC1 [Example E8, 7-({[1-(Cyclopropylcarbonyl)-4-piperidinyl]methyl}oxy)-3-(cyclopropylmethyl)-2,3,4,5-tetrahydro-1H-3-benzazepine]",< 6.5 pKb,> 7 pKb
"Cc1noc(-c2ccc(Oc3ccc4c(c3)CCN(CC3CC3)CC4)nc2)n1 [Example E17, 3-(Cyclopropylmethyl)-7-{[5-(3-methyl-1,2,4-oxadiazol-5-yl)-2-pyridinyl]oxy}-2,3,4,5-tetrahydro-1H-3-benzazepine]",< 6.5 pKb,> 7 pKb
"CC(C)N1CCc2ccc(OCc3ccccc3)cc2CC1 [Example E2, 3-(1-Methylethyl)-7-[(phenylmethyl)oxy]-2,3,4,5-tetrahydro-1H-3-benzazepine]",< 6.5 pKb,–
"O=C1CCCN1c1ccc(Oc2ccc3c(c2)CCN(CC2CC2)CC3)nc1 [Example E13, 1-(6-{[3-(Cyclopropylmethyl)-2,3,4,5-tetrahydro-1H-3-benzazepin-7-yl]oxy}-3-pyridinyl)-2-pyrrolidinone]",< 6.5 pKb,> 7 pKb
"CC(C)N1CCc2ccc(Oc3ccc(N4CCCC4=O)cn3)cc2CC1 [Example E10, 1-(6-{[3-(1-Methylethyl)-2,3,4,5-tetrahydro-1H-3-benzazepin-7-yl]oxy}-3-pyridinyl)-2-pyrrolidinone]",< 6.5 pKb,–
"O=C1CCCN1c1cnc(Oc2ccc3c(c2)CCN(CC2CC2)CC3)cn1 [Example E1, 1-(5-{[3-(Cyclopropylmethyl)-2,3,4,5-tetrahydro-1H-3-benzazepin-7-yl]oxy}-2-pyrazinyl)-2-pyrrolidinone]",< 6.5 pKb,> 7 pKb
"CCOC(=O)c1ccc(Oc2ccc3c(c2)CCN(CC2CC2)CC3)cc1 [Example E22, Ethyl 4-{[3-(cyclopropylmethyl)-2,3,4,5-tetrahydro-1H-3-benzazepin-7-yl]oxy}benzoate]",< 6.5 pKb,> 7 pKb
"CCN1CCc2ccc(OCc3ccccc3)cc2CC1 [Example E4, 3-Ethyl-7-[(phenylmethyl)oxy]-2,3,4,5-tetrahydro-1H-3-benzazepine]",< 6.5 pKb,–
"O=C(c1ccc(F)cc1)N1CCC(COc2ccc3c(c2)CCN(CC2CC2)CC3)CC1 [Example E7, 3-(Cyclopropylmethyl)-7-[({1-[(4-fluorophenyl)carbonyl]-4-piperidinyl}methyl)oxyl]-2,3,4,5-tetrahydro-1H-3-benzazepine]",< 6.5 pKb,> 7 pKb
"CNC(=O)c1cnc(Oc2ccc3c(c2)CCN(CC2CC2)CC3)cn1 [Example E24, 5-{[3-(Cyclopropylmethyl)-2,3,4,5-tetrahydro-1H-3-benzazepin-7-yl]oxy}-N-methyl-2-pyrazinecarboxamide]",< 6.5 pKb,> 7 pKb
"CCC(C)N1CCc2ccc(Oc3ccc(N4CCCC4=O)cn3)cc2CC1 (centres unmarked) [Example E15, 1-(6-{[3-(1-Methylpropyl)-2,3,4,5-tetrahydro-1H-3-benzazepin-7-yl]oxy}-3-pyridinyl)-2-pyrrolidinone]",< 6.5 pKb,> 7 pKb
"N#Cc1ccc(C(=O)N2CCC(Oc3ccc4c(c3)CCN(CC3CC3)CC4)CC2)cc1 [Example E27, 4-[(4-{[3-(Cyclopropylmethyl)-2,3,4,5-tetrahydro-1H-3-benzazepin-7-yl]oxy}-1-piperidinyl)carbonyl]benzonitrile]",< 6.5 pKb,> 7 pKb
"c1cc2c(cc1OCC1CCNCC1)CCN(CC1CC1)CC2 [Example E5, 3-(Cyclopropylmethyl)-7-[(4-piperidinylmethyl)oxy]-2,3,4,5-tetrahydro-1H-3-benzazepine]",< 6.5 pKb,–
"CN1CCN(c2ccc(Oc3ccc4c(c3)CCN(CC3CC3)CC4)cc2)C1=O [Example E18, 1-(4-{[3-(Cyclopropylmethyl)-2,3,4,5-tetrahydro-1H-3-benzazepin-7-yl]oxy}phenyl)-3-methyl-2-imidazolidinone]",< 6.5 pKb,> 7 pKb
